Measured values reported in the supplement of paper PMC10849652.
This is one part of the list.

Protein sequences, listed by entry. Tags and fused reporters are not part of them. Lines headed by an entry give the natural chain unless they say otherwise; changes in a name come on top.
UniProt Q96GX9: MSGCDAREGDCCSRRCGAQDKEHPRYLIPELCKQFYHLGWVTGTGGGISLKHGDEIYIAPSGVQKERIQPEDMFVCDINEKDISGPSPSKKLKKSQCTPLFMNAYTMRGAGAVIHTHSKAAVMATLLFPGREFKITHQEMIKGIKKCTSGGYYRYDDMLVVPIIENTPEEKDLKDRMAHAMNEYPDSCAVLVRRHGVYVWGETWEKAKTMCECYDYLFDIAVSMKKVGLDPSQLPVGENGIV
UniProt P18085: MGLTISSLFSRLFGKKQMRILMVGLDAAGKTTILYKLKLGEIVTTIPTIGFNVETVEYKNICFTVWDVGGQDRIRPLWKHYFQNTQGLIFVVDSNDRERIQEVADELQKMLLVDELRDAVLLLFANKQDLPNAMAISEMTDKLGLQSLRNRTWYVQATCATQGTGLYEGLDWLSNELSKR
UniProt Q9BXS5: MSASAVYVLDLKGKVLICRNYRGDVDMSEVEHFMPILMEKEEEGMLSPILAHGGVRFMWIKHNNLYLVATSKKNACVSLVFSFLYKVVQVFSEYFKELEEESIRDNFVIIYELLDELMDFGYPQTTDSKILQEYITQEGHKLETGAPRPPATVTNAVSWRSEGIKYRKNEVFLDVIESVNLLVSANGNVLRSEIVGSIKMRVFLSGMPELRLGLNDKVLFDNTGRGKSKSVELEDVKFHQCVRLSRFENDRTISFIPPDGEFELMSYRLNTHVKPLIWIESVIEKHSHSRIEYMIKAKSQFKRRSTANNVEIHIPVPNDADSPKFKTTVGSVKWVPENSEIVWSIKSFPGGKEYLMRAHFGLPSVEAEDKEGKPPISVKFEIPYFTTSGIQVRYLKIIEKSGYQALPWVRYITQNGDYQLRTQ
UniProt Q9UKG1: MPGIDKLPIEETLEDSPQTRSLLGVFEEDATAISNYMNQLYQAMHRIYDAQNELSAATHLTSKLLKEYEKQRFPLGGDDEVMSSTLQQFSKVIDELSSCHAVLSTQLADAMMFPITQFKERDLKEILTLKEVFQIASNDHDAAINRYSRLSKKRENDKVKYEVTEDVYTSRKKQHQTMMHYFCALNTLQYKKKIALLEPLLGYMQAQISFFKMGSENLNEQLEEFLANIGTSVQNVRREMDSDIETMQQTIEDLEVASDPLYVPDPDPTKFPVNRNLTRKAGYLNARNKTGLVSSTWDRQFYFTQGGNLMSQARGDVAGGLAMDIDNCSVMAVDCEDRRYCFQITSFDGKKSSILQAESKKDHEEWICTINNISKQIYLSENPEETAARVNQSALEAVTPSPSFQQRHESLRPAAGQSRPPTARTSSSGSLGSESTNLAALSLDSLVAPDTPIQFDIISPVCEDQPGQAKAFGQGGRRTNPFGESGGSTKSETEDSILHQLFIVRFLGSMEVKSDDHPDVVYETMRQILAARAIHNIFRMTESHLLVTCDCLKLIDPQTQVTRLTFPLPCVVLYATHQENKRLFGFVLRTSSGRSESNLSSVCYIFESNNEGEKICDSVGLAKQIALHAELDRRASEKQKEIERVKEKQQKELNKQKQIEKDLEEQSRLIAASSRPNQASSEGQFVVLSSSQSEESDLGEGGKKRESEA
UniProt P08758: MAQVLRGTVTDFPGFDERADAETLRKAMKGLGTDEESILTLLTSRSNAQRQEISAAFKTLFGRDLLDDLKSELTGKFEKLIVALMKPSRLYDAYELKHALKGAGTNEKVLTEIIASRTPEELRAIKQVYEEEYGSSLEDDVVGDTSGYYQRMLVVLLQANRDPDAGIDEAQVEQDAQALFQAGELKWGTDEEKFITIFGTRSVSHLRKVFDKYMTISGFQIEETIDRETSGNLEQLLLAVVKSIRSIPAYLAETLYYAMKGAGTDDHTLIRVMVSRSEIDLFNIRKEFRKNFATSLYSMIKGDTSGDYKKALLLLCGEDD
UniProt Q9BZZ5: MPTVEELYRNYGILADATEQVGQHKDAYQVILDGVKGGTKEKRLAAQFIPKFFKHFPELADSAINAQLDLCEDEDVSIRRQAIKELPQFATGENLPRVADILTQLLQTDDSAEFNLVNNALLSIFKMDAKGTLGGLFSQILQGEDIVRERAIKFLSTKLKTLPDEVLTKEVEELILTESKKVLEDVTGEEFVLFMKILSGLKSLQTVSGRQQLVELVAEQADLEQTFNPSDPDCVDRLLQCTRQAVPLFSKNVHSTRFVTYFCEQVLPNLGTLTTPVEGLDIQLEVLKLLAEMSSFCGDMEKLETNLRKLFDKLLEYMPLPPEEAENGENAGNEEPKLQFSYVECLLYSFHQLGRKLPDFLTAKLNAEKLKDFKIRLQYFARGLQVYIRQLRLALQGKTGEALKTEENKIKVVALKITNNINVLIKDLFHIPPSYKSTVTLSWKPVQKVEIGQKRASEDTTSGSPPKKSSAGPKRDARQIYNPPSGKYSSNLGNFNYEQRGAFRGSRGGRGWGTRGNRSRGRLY
UniProt P53365: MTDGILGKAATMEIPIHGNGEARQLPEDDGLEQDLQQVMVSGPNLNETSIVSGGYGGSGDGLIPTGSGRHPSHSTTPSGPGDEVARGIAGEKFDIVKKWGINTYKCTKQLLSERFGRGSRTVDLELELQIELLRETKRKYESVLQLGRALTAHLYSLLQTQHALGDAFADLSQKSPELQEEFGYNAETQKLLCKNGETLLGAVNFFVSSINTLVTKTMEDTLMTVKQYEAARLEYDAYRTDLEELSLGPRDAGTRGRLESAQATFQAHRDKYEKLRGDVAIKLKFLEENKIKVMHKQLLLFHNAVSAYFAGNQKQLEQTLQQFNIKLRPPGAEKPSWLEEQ
UniProt Q9Y4X5: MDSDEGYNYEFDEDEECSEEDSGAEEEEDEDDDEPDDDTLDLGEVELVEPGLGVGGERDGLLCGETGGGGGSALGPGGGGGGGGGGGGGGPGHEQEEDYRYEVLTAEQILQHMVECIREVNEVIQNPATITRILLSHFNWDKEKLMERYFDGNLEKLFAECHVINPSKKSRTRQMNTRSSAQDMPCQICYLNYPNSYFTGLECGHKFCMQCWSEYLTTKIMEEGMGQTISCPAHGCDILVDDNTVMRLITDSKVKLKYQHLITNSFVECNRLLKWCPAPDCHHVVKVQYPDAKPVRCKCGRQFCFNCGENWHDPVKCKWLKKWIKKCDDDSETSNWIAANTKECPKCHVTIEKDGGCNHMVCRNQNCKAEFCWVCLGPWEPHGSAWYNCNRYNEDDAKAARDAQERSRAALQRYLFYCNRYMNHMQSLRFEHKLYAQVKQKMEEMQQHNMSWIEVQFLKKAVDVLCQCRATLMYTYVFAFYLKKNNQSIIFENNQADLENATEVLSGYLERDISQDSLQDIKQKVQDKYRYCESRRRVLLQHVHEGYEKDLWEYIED
UniProt Q6UXV4: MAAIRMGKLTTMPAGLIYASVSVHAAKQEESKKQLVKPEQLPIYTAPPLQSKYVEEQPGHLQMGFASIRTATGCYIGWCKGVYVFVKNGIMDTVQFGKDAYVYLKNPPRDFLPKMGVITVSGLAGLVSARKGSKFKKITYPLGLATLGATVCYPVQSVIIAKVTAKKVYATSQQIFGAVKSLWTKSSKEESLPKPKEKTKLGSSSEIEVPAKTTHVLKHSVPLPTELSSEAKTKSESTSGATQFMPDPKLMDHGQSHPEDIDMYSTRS
UniProt Q8IV38: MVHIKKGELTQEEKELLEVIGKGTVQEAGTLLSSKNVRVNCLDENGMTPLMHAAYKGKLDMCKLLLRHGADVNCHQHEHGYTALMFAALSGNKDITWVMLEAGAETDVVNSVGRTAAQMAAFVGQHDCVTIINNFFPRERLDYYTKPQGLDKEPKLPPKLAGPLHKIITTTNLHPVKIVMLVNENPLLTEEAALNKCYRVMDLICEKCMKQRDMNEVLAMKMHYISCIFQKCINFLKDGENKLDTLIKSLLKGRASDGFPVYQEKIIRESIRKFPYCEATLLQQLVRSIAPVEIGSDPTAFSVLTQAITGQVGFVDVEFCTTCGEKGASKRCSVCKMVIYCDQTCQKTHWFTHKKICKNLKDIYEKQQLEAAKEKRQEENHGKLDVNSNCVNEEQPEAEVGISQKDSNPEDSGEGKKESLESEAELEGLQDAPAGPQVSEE
UniProt Q8N392: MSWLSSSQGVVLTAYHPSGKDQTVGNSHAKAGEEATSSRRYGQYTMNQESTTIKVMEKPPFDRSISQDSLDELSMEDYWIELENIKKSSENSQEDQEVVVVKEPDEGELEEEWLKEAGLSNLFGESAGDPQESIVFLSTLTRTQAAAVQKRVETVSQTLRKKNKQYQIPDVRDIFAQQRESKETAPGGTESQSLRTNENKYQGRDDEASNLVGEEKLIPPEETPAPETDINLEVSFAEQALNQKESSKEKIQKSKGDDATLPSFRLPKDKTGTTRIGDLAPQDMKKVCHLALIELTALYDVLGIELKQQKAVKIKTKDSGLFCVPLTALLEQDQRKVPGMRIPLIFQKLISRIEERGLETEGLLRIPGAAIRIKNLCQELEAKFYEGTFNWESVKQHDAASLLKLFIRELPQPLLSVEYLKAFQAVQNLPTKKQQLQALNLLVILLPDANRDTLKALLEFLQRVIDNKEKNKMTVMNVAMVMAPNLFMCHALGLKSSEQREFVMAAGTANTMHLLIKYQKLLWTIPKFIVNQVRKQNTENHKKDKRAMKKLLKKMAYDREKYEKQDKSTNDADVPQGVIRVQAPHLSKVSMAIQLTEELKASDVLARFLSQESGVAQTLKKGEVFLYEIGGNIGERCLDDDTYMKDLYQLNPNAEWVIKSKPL
UniProt Q8IZ07: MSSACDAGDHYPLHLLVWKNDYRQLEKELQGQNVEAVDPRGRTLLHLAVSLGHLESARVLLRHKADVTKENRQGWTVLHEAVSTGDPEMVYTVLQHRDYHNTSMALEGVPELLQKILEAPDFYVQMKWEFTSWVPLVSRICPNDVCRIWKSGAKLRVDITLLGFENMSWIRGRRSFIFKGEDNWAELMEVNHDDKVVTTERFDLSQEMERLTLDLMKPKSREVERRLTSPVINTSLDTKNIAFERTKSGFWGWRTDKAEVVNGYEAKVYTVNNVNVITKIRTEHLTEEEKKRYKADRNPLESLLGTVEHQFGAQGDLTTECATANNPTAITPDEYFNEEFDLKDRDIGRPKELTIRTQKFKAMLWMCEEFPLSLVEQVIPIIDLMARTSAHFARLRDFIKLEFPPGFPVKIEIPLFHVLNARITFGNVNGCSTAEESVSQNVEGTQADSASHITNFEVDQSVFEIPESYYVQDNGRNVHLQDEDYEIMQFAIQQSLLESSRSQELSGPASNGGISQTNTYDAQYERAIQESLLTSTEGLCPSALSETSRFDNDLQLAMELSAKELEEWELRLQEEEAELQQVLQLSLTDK
UniProt Q92619: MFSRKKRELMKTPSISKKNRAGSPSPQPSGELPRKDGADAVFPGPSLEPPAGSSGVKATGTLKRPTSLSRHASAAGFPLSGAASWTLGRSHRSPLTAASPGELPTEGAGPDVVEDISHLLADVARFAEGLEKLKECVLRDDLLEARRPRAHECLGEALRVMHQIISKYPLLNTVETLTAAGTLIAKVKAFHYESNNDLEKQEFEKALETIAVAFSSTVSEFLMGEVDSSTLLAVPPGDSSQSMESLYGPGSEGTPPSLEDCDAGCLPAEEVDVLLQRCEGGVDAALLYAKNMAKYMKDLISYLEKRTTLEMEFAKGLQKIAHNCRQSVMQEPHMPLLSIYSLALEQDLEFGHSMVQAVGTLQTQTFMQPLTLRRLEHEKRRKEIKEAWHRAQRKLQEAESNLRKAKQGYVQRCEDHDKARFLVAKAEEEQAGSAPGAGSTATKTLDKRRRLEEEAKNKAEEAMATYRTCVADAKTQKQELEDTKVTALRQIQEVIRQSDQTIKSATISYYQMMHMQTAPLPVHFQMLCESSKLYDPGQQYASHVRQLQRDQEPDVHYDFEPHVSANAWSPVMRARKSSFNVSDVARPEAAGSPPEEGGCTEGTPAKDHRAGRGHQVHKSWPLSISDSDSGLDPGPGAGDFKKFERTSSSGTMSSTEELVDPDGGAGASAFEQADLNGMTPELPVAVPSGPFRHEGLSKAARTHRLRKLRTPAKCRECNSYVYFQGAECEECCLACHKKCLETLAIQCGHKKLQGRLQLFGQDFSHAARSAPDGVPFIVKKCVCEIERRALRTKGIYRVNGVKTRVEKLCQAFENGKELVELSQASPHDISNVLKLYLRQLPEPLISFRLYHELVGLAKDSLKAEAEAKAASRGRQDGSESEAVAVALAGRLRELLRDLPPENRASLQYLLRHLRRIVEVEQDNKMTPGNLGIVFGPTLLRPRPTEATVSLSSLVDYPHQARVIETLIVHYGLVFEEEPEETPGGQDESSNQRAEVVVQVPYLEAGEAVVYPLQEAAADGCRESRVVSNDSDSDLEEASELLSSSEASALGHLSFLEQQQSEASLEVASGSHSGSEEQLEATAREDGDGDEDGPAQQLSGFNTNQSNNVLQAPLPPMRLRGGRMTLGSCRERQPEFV
UniProt P84085: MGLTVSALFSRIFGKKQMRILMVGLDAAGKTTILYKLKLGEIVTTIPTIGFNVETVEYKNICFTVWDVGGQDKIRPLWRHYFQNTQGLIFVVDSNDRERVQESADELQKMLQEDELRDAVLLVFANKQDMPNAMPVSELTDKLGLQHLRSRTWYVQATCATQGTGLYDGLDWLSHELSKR

How the values were obtained:
Test in all cases: log2 fold change, soluble protein after heating vs DMSO (PISA); higher = thermal stabilisation; K562 cells, 10 uM, 30 min; active = over 0.2 and 3.5 SD of the protein, either way, in both replicates (recomputed)
[1] = compound: NC(=O)Nc1cc(-c2cccc(F)c2)sc1C(=O)N[C@H]1CCCNC1
Method in brief: (§1)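 Aliquots of K562 cells (2×10^6 cells/mL) treated with 10 μM compound for 30 min were heated for 3 min over 48°C-58°C. After pooling and extraction in PBS with 0.5% NP-40 at 4°C, soluble protein from a 21,000xg, 90 min spin was quantified by TMTpro 16plex LC-MS/MS with channel sums equalised. Thermal stability is expressed against control samples, from duplicates, as a log2 fold change.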

[2] = compound: NC(=O)c1cnc(N[C@@H]2CCCC[C@@H]2N)nc1Nc1cccc(-n2nccn2)c1
Method in brief: as §1

[3] = compound: NC1(c2ccc(-c3nc4ccn5c(=O)[nH]nc5c4cc3-c3ccccc3)cc2)CCC1
Method in brief: as §1

[4] = compound: NCC(=O)Nc1ccc(-n2nc(C(F)(F)F)cc2-c2ccc3c(ccc4ccccc43)c2)cc1
Method in brief: as §1

entinostat = compound: Nc1ccccc1NC(=O)c1ccc(CNC(=O)OCc2cccnc2)cc1 [entinostat]
Method in brief: as §1

vorinostat = compound: O=C(CCCCCCC(=O)Nc1ccccc1)NO [vorinostat]
Method in brief: as §1

citarinostat = compound: O=C(CCCCCCNC(=O)c1cnc(N(c2ccccc2)c2ccccc2Cl)nc1)NO [citarinostat]
Method in brief: as §1

silmitasertib = compound: O=C(O)c1ccc2c(c1)nc(Nc1cccc(Cl)c1)c1ccncc12 [silmitasertib]
Method in brief: as §1

[5] = compound: O=C1NC(=O)C(c2cnc3ccccn23)=C1c1cn2c3c(cc(F)cc13)CN(C(=O)N1CCCCC1)CC2
Method in brief: as §1

[6] = compound: c1cc(OCCN2CCCCC2)cc(-c2n[nH]c3ccc(-c4nnc[nH]4)cc23)c1
Method in brief: as §1

entospletinib = compound: c1cn2cc(-c3ccc4cn[nH]c4c3)nc(Nc3ccc(N4CCOCC4)cc3)c2n1 [entospletinib]
Method in brief: as §1

Measured: log2 fold change

ANKRD29 (UniProt Q8N6D5)
inactive: [1] -0.044 | [2] -0.181 | [3] -0.337 | [4] -0.119 | entinostat -0.03 | vorinostat 0.061 | citarinostat -0.002 | silmitasertib 0.039 | [5] -0.2 | [6] -0.051

ANXA4 (UniProt P09525)
inactive: [1] -0.041 | [2] -0.039 | [3] -0.095 | [4] -0.035 | entinostat 0.06 | vorinostat -0.011 | citarinostat 0.052 | silmitasertib 0.016 | [5] -0.052 | [6] 0.118 | entospletinib -0.002

APIP (UniProt Q96GX9)
inactive: [1] -0.027 | [2] -0.005 | [3] 0.003 | [4] 0.028 | entinostat -0.017 | vorinostat -0.025 | citarinostat 0.031 | silmitasertib 0.032 | [5] -0.015 | [6] -0.026 | entospletinib -0.013

ANXA1 (UniProt P04083)
inactive: [1] -0.029 | [2] -0.08 | [3] -0.14 | [4] -0.085 | entinostat 0.114 | vorinostat 0.055 | citarinostat 0.036 | silmitasertib 0.11 | [5] -0.027 | [6] 0.029 | entospletinib -0.005

ARF4 (UniProt P18085)
inactive: [1] -0.011 | [2] 0.025 | [3] -0.082 | [4] -0.06 | entinostat -0.002 | vorinostat -0.024 | citarinostat 0.041 | silmitasertib -0.017 | [5] -0.069 | [6] -0.004

AP1M1 (UniProt Q9BXS5)
inactive: [1] -0.014 | [2] -0.043 | [3] -0.048 | [4] 0.006 | entinostat -0.016 | vorinostat 0.019 | citarinostat -0.005 | silmitasertib 0.037 | [5] 0.027 | [6] -0.085 | entospletinib 0

APPL1 (UniProt Q9UKG1)
inactive: [1] -0.032 | [2] -0.012 | [3] -0.023 | [4] -0.043 | entinostat -0.053 | vorinostat 0.009 | citarinostat 0.04 | silmitasertib 0.022 | [5] -0.046 | [6] 0.07

ANXA5 (UniProt P08758)
inactive: [1] -0.021 | [2] -0.044 | [3] -0.139 | [4] -0.031 | entinostat 0.055 | vorinostat 0.027 | citarinostat 0.115 | silmitasertib 0 | [5] -0.045 | [6] -0.008

API5 isoform 2 (UniProt Q9BZZ5)
inactive: [1] 0.012 | [2] 0.043 | [3] -0.065 | [4] -0.092 | entinostat -0.03 | vorinostat 0.075 | citarinostat -0.004 | silmitasertib 0.007 | [5] -0.103 | [6] 0.004 | entospletinib -0.018

ARFGAP2 (UniProt Q8N6H7)
inactive: [1] -0.007 | [2] -0.097 | [3] -0.08 | [4] -0.014 | entinostat 0.037 | vorinostat -0.017 | citarinostat 0.015 | silmitasertib 0.017 | [5] -0.016 | [6] -0.035

ARFGEF1 (UniProt Q9Y6D6)
inactive: [1] 0.028 | [2] 0.121 | [3] -0.023 | [4] 0.006 | entinostat -0.044 | vorinostat 0.02 | citarinostat 0.009 | silmitasertib 0.065 | [5] 0.023 | [6] 0.069

ANK1 isoform 14 (UniProt P16157)
inactive: [1] 0.08 | [2] -0.024 | [3] 0.134 | [4] 0.048 | entinostat 0.059 | vorinostat 0.108 | citarinostat 0.054 | silmitasertib 0.18 | [5] 0.27 | [6] -0.094 | entospletinib 0.278

ARFIP2 (UniProt P53365)
inactive: [1] 0.1 | [2] 0.141 | [3] -0.244 | [4] 0.09 | entinostat 0.14 | vorinostat 0.179 | citarinostat 0.076 | silmitasertib 0.029 | [5] 0.043 | [6] -0.093 | entospletinib -0.108

ARFGEF2 (UniProt Q9Y6D5)
inactive: [1] -0.126 | [2] 0.083 | [3] -0.078 | [4] 0.007 | entinostat 0.024 | vorinostat 0.066 | citarinostat -0.014 | silmitasertib 0.004 | [5] -0.057 | [6] 0.046 | entospletinib -0.019

ARIH1 (UniProt Q9Y4X5)
inactive: [1] -0.02 | [2] -0.037 | [3] -0.024 | [4] 0.015 | entinostat -0.02 | vorinostat -0.017 | citarinostat 0.012 | silmitasertib 0.005 | [5] -0.062 | [6] -0.015 | entospletinib -0.001

APOBEC3C (UniProt Q9NRW3)
inactive: [1] 0 | [2] -0.075 | [3] 0.156 | [4] 0.025 | entinostat -0.006 | vorinostat -0.309 | citarinostat -0.066 | silmitasertib 0.152 | [5] 0.213 | [6] -0.19 | entospletinib 0.115

Copied from the listing (2 entries):
ARIH1 (UniProt Q9Y4X5)
inactive: [1] -0.02 | [2] -0.037 | [3] -0.024 | [4] 0.015 | entinostat -0.02 | vorinostat -0.017 | citarinostat 0.012 | silmitasertib 0.005 | [5] -0.062 | [6] -0.015 | entospletinib -0.001

APOBEC3C (UniProt Q9NRW3)
inactive: [1] 0 | [2] -0.075 | [3] 0.156 | [4] 0.025 | entinostat -0.006 | vorinostat -0.309 | citarinostat -0.066 | silmitasertib 0.152 | [5] 0.213 | [6] -0.19 | entospletinib 0.115

The results go on:

APOOL (UniProt Q6UXV4)
inactive: [1] 0.022 | [2] -0.005 | [3] 0.028 | [4] -0.012 | entinostat -0.023 | vorinostat 0.026 | citarinostat 0.04 | silmitasertib 0.037 | [5] -0.017 | [6] -0.038 | entospletinib 0.031

ANKRD54 (UniProt Q6NXT1)
inactive: [1] 0.035 | [2] -0.011 | [3] -0.044 | [4] 0.149 | entinostat -0.012 | vorinostat 0.041 | citarinostat 0.045 | silmitasertib 0.075 | [5] -0.053 | [6] -0.032 | entospletinib -0.018

ANKMY2 (UniProt Q8IV38)
inactive: [1] 0.025 | [2] -0.054 | [3] -0.075 | [4] -0.049 | entinostat 0.042 | vorinostat 0.053 | citarinostat 0.062 | silmitasertib 0.013 | [5] -0.058 | [6] -0.006 | entospletinib -0.009

ARHGAP18 (UniProt Q8N392)
inactive: [1] -0.137 | [2] -0.141 | [3] -0.144 | [4] -0.155 | entinostat 0.131 | vorinostat 0.035 | citarinostat 0.053 | silmitasertib 0.115 | [5] 0.059 | [6] -0.078 | entospletinib -0.008

ANXA3 (UniProt P12429)
inactive: [1] -0.03 | [2] -0.011 | [3] -0.108 | [4] -0.055 | entinostat 0.008 | vorinostat -0.011 | citarinostat 0.062 | silmitasertib 0 | [5] -0.091 | [6] -0.016 | entospletinib -0.062

ANKRD13A (UniProt Q8IZ07)
inactive: [1] 0.052 | [2] -0.045 | [3] -0.015 | [4] 0.006 | entinostat -0.011 | vorinostat 0.026 | citarinostat 0.015 | silmitasertib 0.024 | [5] -0.065 | [6] -0.093 | entospletinib 0.063

ARHGAP45 isoform 2 (UniProt Q92619)
inactive: [1] -0.142 | [2] -0.078 | [3] -0.162 | [4] 0.076 | entinostat -0.034 | vorinostat 0.058 | citarinostat -0.06 | silmitasertib 0.069 | [5] -0.054 | [6] -0.032 | entospletinib 0.016

ARF5 (UniProt P84085)
inactive: [1] -0.037 | [2] 0.01 | [3] -0.018 | [4] 0.009 | entinostat 0.003 | vorinostat -0.006 | citarinostat 0.006 | silmitasertib 0.011 | [5] -0.008 | [6] -0.051 | entospletinib -0.031

APEH (UniProt P13798)
inactive: [1] 0.014 | [2] 0.005 | [3] 0.022 | [4] 0.011 | entinostat -0.017 | vorinostat -0.029 | citarinostat 0.01 | silmitasertib -0.007 | [5] -0.02 | [6] -0.004 | entospletinib -0.007
